Laboratory results: publication PMC11155057
Results are given in words; binding and its absence hold for the method and conditions named. In cells and extracts the contact can be indirect. Some results given as binding are weak or reduced against the parent protein; the word gives no strength.

Sequences of proteins named here, by UniProt entry; tags and fusion partners are left off. Residues count along the entry.
UniProt O00206, residues 24-839: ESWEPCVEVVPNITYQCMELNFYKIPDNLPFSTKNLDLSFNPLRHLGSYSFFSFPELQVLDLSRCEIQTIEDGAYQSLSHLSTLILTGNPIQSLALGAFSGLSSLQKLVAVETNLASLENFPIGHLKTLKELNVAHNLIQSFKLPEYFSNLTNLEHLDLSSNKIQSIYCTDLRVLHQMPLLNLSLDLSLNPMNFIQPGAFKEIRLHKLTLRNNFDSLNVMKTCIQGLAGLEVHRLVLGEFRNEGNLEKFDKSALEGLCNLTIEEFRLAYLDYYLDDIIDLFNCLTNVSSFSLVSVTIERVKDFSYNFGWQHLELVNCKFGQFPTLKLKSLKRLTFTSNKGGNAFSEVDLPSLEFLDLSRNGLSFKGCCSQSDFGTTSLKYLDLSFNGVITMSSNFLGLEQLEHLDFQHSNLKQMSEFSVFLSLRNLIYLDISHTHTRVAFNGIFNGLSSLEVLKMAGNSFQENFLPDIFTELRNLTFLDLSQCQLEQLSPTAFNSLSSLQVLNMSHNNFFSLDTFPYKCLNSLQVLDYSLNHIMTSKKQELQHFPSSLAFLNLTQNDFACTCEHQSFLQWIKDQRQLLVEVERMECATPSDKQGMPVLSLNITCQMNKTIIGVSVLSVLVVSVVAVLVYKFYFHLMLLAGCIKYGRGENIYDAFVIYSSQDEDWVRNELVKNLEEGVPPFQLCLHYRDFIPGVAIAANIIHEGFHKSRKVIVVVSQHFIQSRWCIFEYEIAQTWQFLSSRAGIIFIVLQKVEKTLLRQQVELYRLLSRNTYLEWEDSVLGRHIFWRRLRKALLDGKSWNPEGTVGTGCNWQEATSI
UniProt O14543: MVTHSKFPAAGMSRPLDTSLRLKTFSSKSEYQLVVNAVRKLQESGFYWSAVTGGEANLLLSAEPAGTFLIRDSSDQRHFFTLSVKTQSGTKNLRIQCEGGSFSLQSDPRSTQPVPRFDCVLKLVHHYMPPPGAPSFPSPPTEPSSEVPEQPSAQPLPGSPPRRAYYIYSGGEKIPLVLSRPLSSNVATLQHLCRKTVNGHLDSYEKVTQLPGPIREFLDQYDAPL

Target: Toll-like receptor 4 (human (endogenous in HK-2)) (UniProt O00206)
Assay: co-IP; HK-2 cells transfected with pCMV empty vector or pCMV SOCS-3 for 48 h; lysed in IP Lysis/Wash Buffer with protease and phosphatase inhibitors; Pierce Co-Immunoprecipitation Kit; blots with anti-SOCS3 and anti-TLR4; cells under normal glucose (NG) or high glucose (HG), HG reduced the interaction

suppressor of cytokine signaling 3 (from UniProt O14543 1-225)
binding: binds
